This note sets out measurements from publication PMC5354272.

Results are given in words; binding and its absence hold for the method and conditions named. In cells and extracts the contact can be indirect. Some entries that bind do so weakly or less than the wild type.

The target of assay [1] is p97/VCP (human (endogenous in AT01, Hu339 and liver tissue)) (UniProt P55072). Briefly: co-IP; AT01 cells transfected with Z-RFP, 24 h later with WT gp78, WT gp78 and WT SVIP or mutant SVIP (VIMm); treated with MG132; IP for gp78, Western blot for p97/VCP.
Assay [2] has the same target. Briefly: co-IP; AT01 cells transfected with non targeting siRNA or siSVIP (2 μM); IP of gp78, IB with anti-p97/VCP antibody.

B1: WT SVIP (overexpressed from pCMV6-Entry-SVIP) (protein, UniProt Q8NHG7 1-77)
chain: MGLCFPCPGESAPPTPDLEEKRAKLAEAAERRQKEAASRGILDVQSVQEKRKKKEKIEKQIATSGPPPEGGLRWTVS
Take B1: the binding entry in assay [1] is “binds”.

B2: SVIP (endogenous) (protein, UniProt Q8NHG7 1-77)
chain: MGLCFPCPGESAPPTPDLEEKRAKLAEAAERRQKEAASRGILDVQSVQEKRKKKEKIEKQIATSGPPPEGGLRWTVS
With B2, the binding result in assay [2] was “binds”.
